According to publication doi:10.1101/830802:
Residue numbers refer to the chain shown, from its start. No constants are given. Whether binding was seen depends on the method and setting. Binding seen in cells or lysates may run through a third protein. Some binding calls cover weakened binding; strength is not graded here. Where a sequence is shown, tags or fusion partners need not be part of it.

Protein sequences, listed by entry. Tags and fused reporters are not part of them.
UniProt Q9UJY4: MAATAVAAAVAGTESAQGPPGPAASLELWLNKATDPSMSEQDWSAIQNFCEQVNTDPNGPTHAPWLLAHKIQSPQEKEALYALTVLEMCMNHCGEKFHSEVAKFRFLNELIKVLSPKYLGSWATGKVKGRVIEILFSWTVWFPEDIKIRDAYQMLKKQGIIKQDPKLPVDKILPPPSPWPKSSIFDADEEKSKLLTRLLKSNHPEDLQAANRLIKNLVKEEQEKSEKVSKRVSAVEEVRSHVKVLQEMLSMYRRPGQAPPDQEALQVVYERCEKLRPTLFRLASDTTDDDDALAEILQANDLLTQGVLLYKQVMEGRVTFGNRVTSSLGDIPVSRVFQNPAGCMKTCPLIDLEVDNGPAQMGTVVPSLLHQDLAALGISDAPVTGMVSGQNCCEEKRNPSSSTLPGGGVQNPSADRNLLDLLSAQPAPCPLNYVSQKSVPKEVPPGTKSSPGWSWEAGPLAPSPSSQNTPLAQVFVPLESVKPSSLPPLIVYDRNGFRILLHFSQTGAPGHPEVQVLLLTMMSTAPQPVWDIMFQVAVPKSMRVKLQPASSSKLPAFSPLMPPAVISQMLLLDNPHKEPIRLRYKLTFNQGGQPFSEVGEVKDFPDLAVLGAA
UniProt Q00610: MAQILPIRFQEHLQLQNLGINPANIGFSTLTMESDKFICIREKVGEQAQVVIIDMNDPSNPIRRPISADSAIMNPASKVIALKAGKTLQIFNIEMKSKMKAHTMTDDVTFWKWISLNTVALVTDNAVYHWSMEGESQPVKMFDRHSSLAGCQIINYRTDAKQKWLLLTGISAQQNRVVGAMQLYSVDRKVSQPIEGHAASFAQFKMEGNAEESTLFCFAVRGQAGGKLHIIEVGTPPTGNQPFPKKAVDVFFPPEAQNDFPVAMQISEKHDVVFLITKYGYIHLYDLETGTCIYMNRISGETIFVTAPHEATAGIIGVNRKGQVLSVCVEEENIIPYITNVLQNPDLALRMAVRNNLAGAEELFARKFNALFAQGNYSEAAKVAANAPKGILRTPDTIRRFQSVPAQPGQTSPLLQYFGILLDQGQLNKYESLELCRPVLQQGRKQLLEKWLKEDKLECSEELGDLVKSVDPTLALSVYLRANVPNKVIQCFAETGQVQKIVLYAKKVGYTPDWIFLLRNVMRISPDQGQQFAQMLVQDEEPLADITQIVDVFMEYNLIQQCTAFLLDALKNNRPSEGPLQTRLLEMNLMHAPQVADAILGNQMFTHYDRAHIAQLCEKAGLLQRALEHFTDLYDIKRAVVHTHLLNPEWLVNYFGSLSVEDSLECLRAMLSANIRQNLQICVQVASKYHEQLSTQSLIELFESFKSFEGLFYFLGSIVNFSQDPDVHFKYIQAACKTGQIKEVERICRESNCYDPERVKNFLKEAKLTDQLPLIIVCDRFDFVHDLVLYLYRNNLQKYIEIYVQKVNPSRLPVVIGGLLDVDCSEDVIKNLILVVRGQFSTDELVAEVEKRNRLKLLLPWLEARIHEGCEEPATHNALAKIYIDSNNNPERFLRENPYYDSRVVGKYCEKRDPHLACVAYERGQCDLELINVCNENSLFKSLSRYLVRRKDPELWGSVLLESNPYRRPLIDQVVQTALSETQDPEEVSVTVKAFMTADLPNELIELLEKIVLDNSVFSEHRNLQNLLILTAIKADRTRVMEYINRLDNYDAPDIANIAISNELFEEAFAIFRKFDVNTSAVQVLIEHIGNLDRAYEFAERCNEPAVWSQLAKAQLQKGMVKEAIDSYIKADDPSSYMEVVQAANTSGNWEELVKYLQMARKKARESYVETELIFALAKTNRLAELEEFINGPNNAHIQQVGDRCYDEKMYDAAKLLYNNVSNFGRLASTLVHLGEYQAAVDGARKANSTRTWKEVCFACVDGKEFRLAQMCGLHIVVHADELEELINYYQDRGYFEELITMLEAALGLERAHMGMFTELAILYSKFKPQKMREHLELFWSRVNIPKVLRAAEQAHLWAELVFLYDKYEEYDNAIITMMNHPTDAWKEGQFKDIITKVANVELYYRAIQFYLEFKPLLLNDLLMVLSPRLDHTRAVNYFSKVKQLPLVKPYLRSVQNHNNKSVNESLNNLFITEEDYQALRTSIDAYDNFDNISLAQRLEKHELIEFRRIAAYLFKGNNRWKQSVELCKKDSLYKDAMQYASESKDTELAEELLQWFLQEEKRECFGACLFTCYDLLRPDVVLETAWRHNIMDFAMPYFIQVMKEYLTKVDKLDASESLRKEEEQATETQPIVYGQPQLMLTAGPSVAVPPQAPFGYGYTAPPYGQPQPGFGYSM

Experiments:
Assay in all cases: co-IP
[1] = biological target: T1, GFP-Auxilin (wild type, human) (human) (UniProt O75061)
T1 sequence: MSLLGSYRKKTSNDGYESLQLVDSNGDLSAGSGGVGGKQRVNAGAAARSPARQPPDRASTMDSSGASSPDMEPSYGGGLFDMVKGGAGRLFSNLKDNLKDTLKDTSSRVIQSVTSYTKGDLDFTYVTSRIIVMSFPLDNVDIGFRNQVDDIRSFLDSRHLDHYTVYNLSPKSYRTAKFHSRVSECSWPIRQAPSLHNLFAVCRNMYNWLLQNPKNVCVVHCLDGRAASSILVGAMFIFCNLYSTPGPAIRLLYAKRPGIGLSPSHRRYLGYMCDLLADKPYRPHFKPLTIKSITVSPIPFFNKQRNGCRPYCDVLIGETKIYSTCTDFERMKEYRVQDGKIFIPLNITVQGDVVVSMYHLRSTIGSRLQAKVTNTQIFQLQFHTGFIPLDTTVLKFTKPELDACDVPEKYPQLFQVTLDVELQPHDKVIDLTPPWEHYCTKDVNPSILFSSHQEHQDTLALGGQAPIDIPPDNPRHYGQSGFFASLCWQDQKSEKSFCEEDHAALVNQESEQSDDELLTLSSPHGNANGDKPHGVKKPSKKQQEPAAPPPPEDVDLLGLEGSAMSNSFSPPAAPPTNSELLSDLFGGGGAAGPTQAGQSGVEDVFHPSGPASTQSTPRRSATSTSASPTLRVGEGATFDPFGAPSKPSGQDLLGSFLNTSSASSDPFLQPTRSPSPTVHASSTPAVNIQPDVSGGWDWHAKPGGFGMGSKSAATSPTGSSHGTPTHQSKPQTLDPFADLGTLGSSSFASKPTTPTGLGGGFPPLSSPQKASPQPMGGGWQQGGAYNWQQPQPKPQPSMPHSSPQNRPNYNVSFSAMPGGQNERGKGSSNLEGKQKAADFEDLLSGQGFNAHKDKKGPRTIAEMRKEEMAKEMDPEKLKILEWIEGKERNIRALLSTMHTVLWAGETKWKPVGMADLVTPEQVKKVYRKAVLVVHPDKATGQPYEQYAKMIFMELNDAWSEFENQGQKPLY

[2] = biological target: T2, GFP-Auxilin Q791X (human) (UniProt O75061)
T2 sequence: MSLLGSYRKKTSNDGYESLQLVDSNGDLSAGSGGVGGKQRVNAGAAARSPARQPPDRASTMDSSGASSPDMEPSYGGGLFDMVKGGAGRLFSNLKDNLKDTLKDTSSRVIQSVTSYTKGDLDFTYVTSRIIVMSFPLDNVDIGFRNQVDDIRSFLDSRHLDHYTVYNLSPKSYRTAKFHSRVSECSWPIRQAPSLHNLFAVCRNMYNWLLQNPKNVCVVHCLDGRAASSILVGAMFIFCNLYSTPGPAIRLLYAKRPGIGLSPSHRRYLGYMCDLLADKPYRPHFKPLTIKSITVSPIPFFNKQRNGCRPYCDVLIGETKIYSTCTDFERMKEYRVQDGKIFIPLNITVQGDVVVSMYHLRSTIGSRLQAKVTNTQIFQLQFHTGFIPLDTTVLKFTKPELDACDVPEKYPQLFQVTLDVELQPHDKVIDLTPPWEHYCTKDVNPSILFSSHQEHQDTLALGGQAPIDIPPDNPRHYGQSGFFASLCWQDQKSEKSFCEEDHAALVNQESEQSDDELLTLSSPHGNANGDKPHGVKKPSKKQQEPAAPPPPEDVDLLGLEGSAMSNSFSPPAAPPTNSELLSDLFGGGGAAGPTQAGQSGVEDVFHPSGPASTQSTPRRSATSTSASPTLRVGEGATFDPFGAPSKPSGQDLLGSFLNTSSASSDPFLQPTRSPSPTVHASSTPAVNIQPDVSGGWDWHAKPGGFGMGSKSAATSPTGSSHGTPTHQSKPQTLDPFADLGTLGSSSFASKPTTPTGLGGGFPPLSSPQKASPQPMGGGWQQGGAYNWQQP

[3] = biological target: T3, GFP-Auxilin Q846X (human) (UniProt O75061)
T3 sequence: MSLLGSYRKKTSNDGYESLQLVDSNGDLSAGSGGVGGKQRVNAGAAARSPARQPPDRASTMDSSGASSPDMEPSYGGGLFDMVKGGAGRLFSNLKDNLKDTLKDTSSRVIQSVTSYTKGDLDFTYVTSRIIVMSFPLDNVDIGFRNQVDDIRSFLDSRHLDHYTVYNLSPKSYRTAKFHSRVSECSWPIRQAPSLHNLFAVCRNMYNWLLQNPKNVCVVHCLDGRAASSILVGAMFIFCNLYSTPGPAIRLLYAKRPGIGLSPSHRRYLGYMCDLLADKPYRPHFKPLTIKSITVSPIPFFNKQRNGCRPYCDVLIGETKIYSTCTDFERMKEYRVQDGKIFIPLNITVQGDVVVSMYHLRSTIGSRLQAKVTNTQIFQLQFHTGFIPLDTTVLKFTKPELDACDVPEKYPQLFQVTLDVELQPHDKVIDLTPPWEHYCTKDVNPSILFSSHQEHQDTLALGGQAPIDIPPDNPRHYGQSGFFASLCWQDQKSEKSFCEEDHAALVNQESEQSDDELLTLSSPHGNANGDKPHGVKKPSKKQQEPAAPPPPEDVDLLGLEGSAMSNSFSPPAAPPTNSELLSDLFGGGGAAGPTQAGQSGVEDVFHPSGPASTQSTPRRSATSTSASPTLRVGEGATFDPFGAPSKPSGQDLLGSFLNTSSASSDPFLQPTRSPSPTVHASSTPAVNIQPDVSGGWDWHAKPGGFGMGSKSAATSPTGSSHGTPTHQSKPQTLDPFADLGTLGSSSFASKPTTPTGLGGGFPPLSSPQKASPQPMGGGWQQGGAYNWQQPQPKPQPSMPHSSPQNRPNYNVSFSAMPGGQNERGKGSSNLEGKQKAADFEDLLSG

[4] = biological target: T4, GFP-Auxilin R927G (human) (UniProt O75061)
T4 sequence: T1 sequence with R927G

[5] = biological target: T5, GFP-GAK (UniProt O14976)
T5 sequence: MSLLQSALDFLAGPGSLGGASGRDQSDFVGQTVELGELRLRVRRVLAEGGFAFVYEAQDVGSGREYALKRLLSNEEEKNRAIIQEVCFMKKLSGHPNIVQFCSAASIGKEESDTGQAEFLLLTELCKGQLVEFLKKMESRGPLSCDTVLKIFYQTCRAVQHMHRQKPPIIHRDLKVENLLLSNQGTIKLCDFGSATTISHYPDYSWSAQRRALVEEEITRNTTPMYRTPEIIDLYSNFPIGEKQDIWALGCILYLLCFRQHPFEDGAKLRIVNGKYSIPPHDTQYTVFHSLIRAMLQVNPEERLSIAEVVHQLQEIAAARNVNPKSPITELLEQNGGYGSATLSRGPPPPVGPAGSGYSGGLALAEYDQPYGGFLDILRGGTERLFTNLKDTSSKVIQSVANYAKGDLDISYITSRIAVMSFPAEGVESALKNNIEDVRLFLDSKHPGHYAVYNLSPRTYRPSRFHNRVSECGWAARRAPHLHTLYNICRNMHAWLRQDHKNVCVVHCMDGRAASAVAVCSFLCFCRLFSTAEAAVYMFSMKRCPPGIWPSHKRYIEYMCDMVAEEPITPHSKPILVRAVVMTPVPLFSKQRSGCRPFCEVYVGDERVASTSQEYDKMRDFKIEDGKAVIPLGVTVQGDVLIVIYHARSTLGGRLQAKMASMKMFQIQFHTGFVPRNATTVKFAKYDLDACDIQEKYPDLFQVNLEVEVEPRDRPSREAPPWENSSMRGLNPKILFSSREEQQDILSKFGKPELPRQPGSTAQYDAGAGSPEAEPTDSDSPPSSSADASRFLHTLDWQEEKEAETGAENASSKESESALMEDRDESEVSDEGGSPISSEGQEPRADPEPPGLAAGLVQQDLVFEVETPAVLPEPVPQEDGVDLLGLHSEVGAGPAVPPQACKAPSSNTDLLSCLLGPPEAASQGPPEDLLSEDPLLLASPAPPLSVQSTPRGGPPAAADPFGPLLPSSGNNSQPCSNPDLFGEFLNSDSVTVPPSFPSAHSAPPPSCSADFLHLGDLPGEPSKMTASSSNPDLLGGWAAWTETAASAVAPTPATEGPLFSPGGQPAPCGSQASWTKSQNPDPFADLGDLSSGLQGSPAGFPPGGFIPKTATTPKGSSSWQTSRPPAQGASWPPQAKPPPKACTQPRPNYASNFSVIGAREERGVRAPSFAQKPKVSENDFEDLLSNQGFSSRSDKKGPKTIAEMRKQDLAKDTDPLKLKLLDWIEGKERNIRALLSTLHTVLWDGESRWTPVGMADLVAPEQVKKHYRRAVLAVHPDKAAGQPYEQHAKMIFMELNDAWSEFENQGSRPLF

GGA2, endogenous in HEK293FT (from UniProt Q9UJY4 1-613)
binding [1]: binds | binding [2]: binds | binding [3]: binds | binding [4]: binds | binding [5]: no binding

clathrin heavy chain (CHC), endogenous in HEK293FT (from UniProt Q00610 1-1675)
binding [1]: binds | binding [4]: binds
